Source: publication PMC3706396
No constants are given. Whether binding was seen depends on the method and setting. In cells and extracts the contact can be indirect. Some binding calls cover weakened binding; strength is not graded here.

The chains behind the UniProt entries cited, without tags or fusion partners.
UniProt P31946: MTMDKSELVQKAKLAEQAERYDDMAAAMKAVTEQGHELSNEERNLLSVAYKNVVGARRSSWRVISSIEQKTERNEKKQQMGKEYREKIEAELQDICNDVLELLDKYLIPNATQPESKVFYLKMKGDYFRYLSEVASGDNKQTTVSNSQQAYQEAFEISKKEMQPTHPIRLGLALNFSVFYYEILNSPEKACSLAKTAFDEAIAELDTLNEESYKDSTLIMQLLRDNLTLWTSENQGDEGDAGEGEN

Target: 14-3-3β (human (endogenous in KB)) (UniProt P31946)
Test: co-IP; lysates of G2/M synchronized KB, KB-EGFP and KB-S100A8/A9 cells; 14-3-3β captured with anti-14-3-3β antibody and protein-A gel at 4°C, Cdc25C detected by immunoblot; more co-precipitate in KB-S100A8/A9 cells

B1: Cdc25C (protein, UniProt P30307 1-473)
chain: MSTELFSSTREEGSSGSGPSFRSNQRKMLNLLLERDTSFTVCPDVPRTPVGKFLGDSANLSILSGGTPKRCLDLSNLSSGEITATQLTTSADLDETGHLDSSGLQEVHLAGMNHDQHLMKCSPAQLLCSTPNGLDRGHRKRDAMCSSSANKENDNGNLVDSEMKYLGSPITTVPKLDKNPNLGEDQAEEISDELMEFSLKDQEAKVSRSGLYRSPSMPENLNRPRLKQVEKFKDNTIPDKVKKKYFSGQGKLRKGLCLKKTVSLCDITITQMLEEDSNQGHLIGDFSKVCALPTVSGKHQDLKYVNPETVAALLSGKFQGLIEKFYVIDCRYPYEYLGGHIQGALNLYSQEELFNFFLKKPIVPLDTQKRIIIVFHCEFSSERGPRMCRCLREEDRSLNQYPALYYPELYILKGGYRDFFPEYMELCEPQSYCPMHHQDHKTELLRCRSQSKVQEGERQLREQIALLVKDMSP
B1 was tested, and the binding was “binds”.
